Literature values, collected in patent US20100226931A1, “Compounds for immunopotentiation” (priority 2004, published 2010).
For at least one compound, name, drawing or mass did not settle the structure.

Test system: TNF-α
Settings: at 300 μM; Pope et al. Cellular Immunology 162: 333-339 (1995); cited from earlier work

C=CCn1c(=O)n([C@@H]2O[C@H](CO)[C@@H](O)[C@H]2O)c2nc(N)[nH]c(=O)c21 [Loxoribine, 7-Allyl-8-Oxoguanosine]
production of TNF-α: causes useful production of TNF-α
